Results as given in PubChem BioAssay AID504467 (National Center for Advancing Translational Sciences (NCATS), 2011).
The whole screen tested about 330,000 compounds, of which about 7,700 (2.3%) were called active. Inconclusive means that the source gave no clear call. Such entries were picked first, then a sample of the others. The call rests on the fitted dose curve; in most records, active means well fitted inhibition curve with a large enough effect; inconclusive means small, poorly fitted or top-dose-only effect, or effect the other way; inactive means flat fitted curve, though single readings scatter. Where the call is inconclusive, the potency comes from a doubtful curve fit.

Assay: qHTS screen for small molecules that inhibit ELG1-dependent DNA repair in human embryonic kidney (HEK293T) cells expressing luciferase-tagged ELG1; further: nearly all actives have a fitted effect of over 55% in size
Details: HEK293T ELG1-luciferase reporter, luminescence, 16 h, DNA damage induced by 5-fluorouridine; series mostly up to 46.1 µM
Method in brief: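 HEK293T cells expressing luciferase-tagged ELG1 (2,000/well) received 5-Fluorouridine plus compound or DMSO for 16 hr at 37 °C. Luciferase was read by ONE-Glo luminescence after 30 min at room temperature.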
Potency means the concentration at half of the fitted maximal effect.

| SMILES | Potency |
| --- | --- |
| CC/C(=N\N1CCCCC1)c1c(O)[nH]c(=O)[nH]c1=O | inactive |
| O=C1NC(=O)C(=Cc2ccc(-c3ccc(Cl)cc3)o2)C(=O)N1 | inconclusive: 18.3 µM [inhibitor, single point] |
| Cn1c(O)c(C(=NCCN2CCCCC2)c2ccccc2Cl)c(=O)n(C)c1=O | inactive |
| C=CCn1c(O)c(C(C)=Nc2cccc(C(=O)O)c2)c(=O)[nH]c1=O | inactive |
| Cc1cc(OCC(=O)N2CCC(C(=O)O)(c3ccccc3)CC2)c2c(C)cc(=O)oc2c1 | inactive |
| COc1cc(Cn2c(N)c(C(=O)NCc3ccco3)c3nc4ccccc4nc32)cc(OC)c1OC | active: 3.26 µM |
| CCN(CC)c1ccc(NC(=O)c2cccc(C)c2)cc1S(=O)(=O)Nc1ccccc1OC | inconclusive: 0.184 µM [inhibitor, full curve] |
| Clc1ccc(CNCCc2ccc3c(c2)OCO3)cc1 | inactive |
| COC(=O)NC(=C(Cl)Cl)P(=O)(c1ccccc1)c1ccccc1 | inactive |
| O=C(CCNS(=O)(=O)c1ccccc1)Nc1ccc(Cl)cc1C(=O)c1ccccc1 | inconclusive: 10.3 µM [inhibitor, partial curve] |
| COC(=O)Nc1ccc(N=C(N)N[N+](=O)[O-])cc1 | inactive |
| O=C(NCc1ccc(C(=O)N2CCC3(CC2)OCCO3)cc1)c1cccc(Br)c1 | inconclusive: 11.6 µM [inhibitor, partial curve, poor fit] |
| CCn1c(O)c(N=Nc2ccc(S(=O)(=O)N3CCOCC3)cc2)c(=O)n(CC)c1=S | inconclusive: 29.1 µM [inhibitor, single point] |
| Nc1c(C(=O)NCCCc2ccccc2)c2nc3ccccc3nc2n1Cc1cccs1 | active: 14.6 µM |
| Cc1nnc2ccc(N3CCN(C)CC3)nn12 | inconclusive: 20.6 µM [activator, single point] |
| CCCCOC(=O)c1ccccc1C(=O)OCc1ccccc1 | inactive |
| O=c1c2ccccc2[nH]c(=S)n1-c1ccc(Br)cc1 | inconclusive: 32.6 µM [activator, partial curve, poor fit] |
| Cc1ccccc1N | inactive |
| Cc1oc(/N=C/c2ccc3c(c2)OCO3)c(C#N)c1C | inconclusive: 5.8 µM [activator, partial curve] |
| COc1ccc(C(C)=O)cc1CN1CC=C(c2ccccc2)CC1 | inactive |
| O=P(O)(O)Cc1c(Cl)cccc1Cl | inactive |
| C=CCn1c(O)c(C(C)=NCc2ccc3c(c2)OCO3)c(=O)[nH]c1=O | inconclusive: 20.6 µM [inhibitor, single point] |
| O=[N+]([O-])c1ccc(N2CCNCC2)cc1NCc1ccco1 | inconclusive: 32.6 µM [activator, partial curve, poor fit] |

| SMILES | Potency |
| --- | --- |
| Cc1nn(Cc2ccc(Cl)cc2Cl)c(Cl)c1C(=O)NC1CCCc2ccccc21 (stereo not drawn) | inconclusive: 29.1 µM [inhibitor, single point] |
| COc1ccc(Cn2c(N)c(C(=O)NCc3ccco3)c3nc4ccccc4nc32)cc1 | inconclusive: 23.1 µM [inhibitor, single point] |
| CCOC(=O)c1ccc(N=C(C)c2c(O)[nH]c(=O)[nH]c2=O)cc1 | inconclusive: 16.4 µM [activator, partial curve, poor fit] |
| O=S(=O)(c1ccc(Cl)cc1)N1CCN(C2CCN(Cc3ccccc3)CC2)CC1 | inconclusive: 23.1 µM [inhibitor, partial curve, poor fit] |
| CCn1c(=O)n(CC)c2cc([N+](=O)[O-])c(N3CCNCC3)cc21 | inconclusive: 29.1 µM [activator, single point] |
| COc1cc(CN=Cc2c(O)n(C(C)(C)C)c(=O)[nH]c2=O)cc(OC)c1 | inconclusive: 20.6 µM [inhibitor, partial curve] |
| CC(C)CCNC(=O)c1c(N)n(CC2CCCO2)c2nc3ccccc3nc12 (stereo not drawn) | inconclusive: 23.1 µM [inhibitor, single point] |
| COc1ccc(-n2c(O)c(C(C)=NCCCn3ccnc3)c(=O)[nH]c2=O)cc1 | inactive |
| NC(=O)C1CCN(C(=O)CCn2c(=O)oc3ccccc32)CC1 | inconclusive: 29.1 µM [activator, single point] |
| Cc1cc(C)cc(N2C(=O)NC(=O)/C(=C\c3cccn3-c3ccc(Cl)cc3)C2=O)c1 | inconclusive: 5.8 µM [activator, full curve] |
| COC(=O)C1=C(c2ccc(OCc3ccccc3)cc2)C[C@@H]2CC[C@H]1N2C(=O)NCc1ccc(OC)c(OC)c1 | inconclusive: 20.6 µM [inhibitor, partial curve, poor fit] |
| Cc1ccc(-c2cc(NC(=O)c3ccccc3)on2)cc1 | inconclusive: 11.6 µM [activator, partial curve] |
| CCOC(=O)C(O)(c1ccc(NC(=O)NC)cc1)C(F)(F)F (stereo not drawn) | inconclusive: 25.9 µM [activator, partial curve, poor fit] |
| COc1ccc(C(=O)Nc2ccccc2-c2nnn(CC(=O)Nc3ccc4c(c3)OCCO4)n2)cc1 | inconclusive: 5.17 µM [inhibitor, partial curve, poor fit] |
| COc1ccc(NC(=O)CN(C)C(=O)CSC(c2ccccc2)c2ccccc2)cc1 | inconclusive: 20.6 µM [inhibitor, single point] |
| Cc1cc(C)cc(N2C(=O)NC(=O)/C(=C\c3cccn3-c3ccccc3)C2=O)c1 | inactive |
| COc1cc(OC)c(/C=C2\C(=O)Nc3ccccc32)c(OC)c1 | inconclusive: 11.2 µM [inhibitor, partial curve, poor fit] |
| O=C(N/N=C/c1c(O)n(Cc2ccco2)c(=O)[nH]c1=O)c1ccccc1 | inconclusive: 11.6 µM [activator, partial curve] |
| C=CCn1c(O)c(C(CC)=NCCc2ccccc2)c(=O)[nH]c1=O | inconclusive: 18.4 µM [activator, partial curve] |
| Cn1c(=O)oc2cc(S(=O)(=O)N3CCC(C(=O)N4CCN(c5ccc(F)cc5)CC4)CC3)ccc21 | inconclusive: 29.1 µM [inhibitor, partial curve, poor fit] |
| CCOC(C[n+]1c(-c2ccccc2)cc(C)cc1-c1ccccc1)OCC | inactive |
| CCC(=NCCOc1ccc(Cl)cc1)c1c(O)n(C)c(=O)n(C)c1=O | inconclusive: 10 µM [inhibitor, partial curve, poor fit] |
| O=C(COc1ccc2ccccc2c1)N1CCN(CC2CC3C=CC2C3)CC1 (stereo not drawn) | inactive |

2 successive entries out of the list so far, for reference:

| SMILES | Potency |
| --- | --- |
| NC(=O)C1CCN(C(=O)CCn2c(=O)oc3ccccc32)CC1 | inconclusive: 29.1 µM [activator, single point] |
| Cc1cc(C)cc(N2C(=O)NC(=O)/C(=C\c3cccn3-c3ccc(Cl)cc3)C2=O)c1 | inconclusive: 5.8 µM [activator, full curve] |

(list continues)

| SMILES | Potency |
| --- | --- |
| CN(C)Cc1c[nH]c2ccccc12 | inactive |
| CC1(C)Cc2c(sc3nc4n(-c5ccccc5)c(=O)c(CCC(=O)O)nn4c(=O)c23)CO1 | inconclusive: 23.1 µM [inhibitor, single point] |
| Cc1ccc(CN2C(=O)NC(=O)C3(Cc4c(nc5ccccn5c4=O)N4CCCCCC43)C2=O)cc1 (stereo not drawn) | inconclusive: 16.4 µM [inhibitor, single point] |
| COc1ccc(NC(=O)N2CCC3(CC2)OCCO3)cc1 | inconclusive: 18.3 µM [activator, partial curve] |
| O=C1c2ccccc2C(=O)N1SC1CCCCC1 | inconclusive: 16.4 µM [activator, single point] |
| COC(=O)C1=C(c2cccc(OCc3ccccc3)c2)C[C@@H]2CC[C@H]1N2C(=O)NCc1cccc(OC)c1 | inconclusive: 18.3 µM [inhibitor, partial curve] |
| O=C(CSc1ncnc2c1nnn2-c1ccc(F)cc1)NCC1CCCO1 (stereo not drawn) | inconclusive: 20.6 µM [activator, single point] |
| CC(C)CCCn1c(O)c(/C=C2/C=CC=N2)c(=O)[nH]c1=O | inconclusive: 3.26 µM [inhibitor, full curve, poor fit] |
| COP(=S)(OC)c1c(C)nn(CCC#N)c1NC(=O)c1ccc(Cl)cc1 | inactive |
| O=C1NC(=S)NC(=O)C1=Cc1cccc2cc3ccccc3cc12 | inconclusive: 29.1 µM [inhibitor, single point] |
| Cc1ccc(N2C(=O)NC(=O)/C(=C\C=C\c3ccco3)C2=O)cc1C | inconclusive: 29.1 µM [inhibitor, single point] |
| CCN(CC)c1ccc(/C=C2\C(=O)NC(=O)N(Cc3ccco3)C2=O)cc1 | inconclusive: 18.4 µM [activator, single point] |
| Cc1ccc(S(=O)(=O)c2nc(-c3ccccc3Cl)oc2N(C)C2CCN(C)CC2)cc1 | inactive |
| COC(=O)N(c1ccccc1)P(=O)(Oc1ccccc1)Oc1ccccc1 | inconclusive: 29.1 µM [inhibitor, single point] |
| COCCO[C@H]1CCC2C3CC=C4C[C@@H](O)CC[C@]4(C)C3CC[C@@]21C (stereo partly drawn) | inconclusive: 18.3 µM [inhibitor, single point] |
| Cc1c(CC(=O)N2C[C@H]3C[C@@H](C2)c2cccc(=O)n2C3)c(=O)oc2cc(O)c(Cl)cc12 | inactive |
| CCOC(=O)c1c(C)c(P(=S)(N2CCOCC2)N2CCOCC2)n(C)c1C | active: 16.4 µM |
| Cc1ccc(C=C2C(Cl)=C(Cl)C(Cl)=C2Cl)cc1 | inconclusive: 29.1 µM [activator, single point] |
| Cc1ccccc1N1C(=O)NC(=O)/C(=C\c2cnn(-c3ccccc3)c2)C1=O | inconclusive: 16.4 µM [activator, single point] |
| COc1ccc(CC(C)NC2CCCCCC2)cc1 (stereo not drawn) | inactive |
| O=S(=O)(F)c1ccc2nc(-c3cccc(Sc4ccccc4)c3)cc(Cl)c2c1 | inactive |
| CC(=O)c1c(C)n(CCCOC(C)C)c2ccc(O)cc12 | inconclusive: 29.1 µM [inhibitor, single point] |

Molecules listed so far containing an aryl thioether with sulfur outside any ring (2):

| SMILES | Potency |
| --- | --- |
| O=C(CSc1ncnc2c1nnn2-c1ccc(F)cc1)NCC1CCCO1 (stereo not drawn) | inconclusive: 20.6 µM [activator, single point] |
| O=S(=O)(F)c1ccc2nc(-c3cccc(Sc4ccccc4)c3)cc(Cl)c2c1 | inactive |
